Results are given in words; binding and its absence hold for the method and conditions named. Some results given as binding are weak or reduced against the parent protein; the word gives no strength.
Target: biotinylated human FX (human) (UniProt P00742)
Experiment: panning of an L chain library (fixed ACE910 H chain) on biotinylated human FX; no read-out printed

Chains of the proteins cited; added tags and fusions are not shown. Residues count along the entry.
UniProt P00742, residues 41-488: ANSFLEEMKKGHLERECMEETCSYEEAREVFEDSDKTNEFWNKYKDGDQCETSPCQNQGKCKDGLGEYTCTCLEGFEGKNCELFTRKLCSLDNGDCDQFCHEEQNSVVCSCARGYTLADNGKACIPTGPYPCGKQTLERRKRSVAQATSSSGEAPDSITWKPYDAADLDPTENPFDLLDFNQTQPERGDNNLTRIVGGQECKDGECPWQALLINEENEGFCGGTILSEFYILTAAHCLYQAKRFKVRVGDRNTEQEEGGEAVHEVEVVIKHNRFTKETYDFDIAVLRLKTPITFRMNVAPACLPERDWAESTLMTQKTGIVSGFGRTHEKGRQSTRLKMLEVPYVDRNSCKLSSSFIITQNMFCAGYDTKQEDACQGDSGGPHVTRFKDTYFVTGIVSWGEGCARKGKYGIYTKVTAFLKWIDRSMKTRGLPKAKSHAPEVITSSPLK

- binding: binds
B1: JNK252 (heavy chain SEQ ID NO: 46 and light chain SEQ ID NO: 21) (antibody, V domains shown)
VH: QVQLVQSGSELKKPGASVKVSCKASGYTFTDNNMDWVRQAPGQGLEWMGDINTRSGGSIYNEEFQDRVIMTVDKSTDTAYMELSSLRSEDTATYHCARRKSYGYYLDEWGEGTLVTVSS
VL: NIQMTQSPASLSASVGDKVTITCQASQDIGTSLNWYQQRPGTAPKLLIFDTSNLEKGVPSRFSGSKSETYFTFAISSLQPEDIATYYCQQSYNIPWTFGRGTKVEIT

— patent US20190185578A1
